Test results taken from the supplement of paper PMC10735217.
This is one part of the list. Repeats in this data set agree poorly, so a single value says little.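 In a drug-repurposing library screen, luminescence reads luciferase driven by eight TEAD-binding elements, stably integrated into human kidney-derived cells. Compounds scoring over five robust Z scores above the plate mean are called hits.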

Test system: HEK293A TEAD-LUC reporter
Experiment: TEAD-luciferase reporter activity (YAP activation), robust Z score vs plate; higher = stronger YAP/TEAD activation
Details: 24 h

| SMILES | TEAD-luciferase reporter activity (compound concentration: 200 nM) | TEAD-luciferase reporter activity (compound concentration: 10 uM) | TEAD-luciferase reporter activity (compound concentration: 2 uM) |
| --- | --- | --- | --- |
| CC(C)N(CCC(C(N)=O)(c1ccccc1)c1ccccn1)C(C)C (centres undefined) | inactive: -1.01 | inactive: -0.137 |  |
| CC(C)N(CCC(C(N)=O)(c1ccccc1)c1ccccn1)C(C)C (centres undefined) [disopyramide SR, Ethypharm] |  |  | inactive: -2.25 |
| Cc1ccc2c(c1)[C@H]1CN(C)CC[C@H]1N2 [Stobadine] | inactive: -0.461 | inactive: 1.37 | inactive: -0.549 |
| O=c1[nH]c(=O)n(Cl)c(=O)n1Cl | inactive: -1.47 | inactive: -0.783 | inactive: 1.51 |
| CCOC(=O)C1(c2ccccc2)CCC=CC1N(C)C (centres undefined) [tilidine] | inactive: 1.1 | inactive: -0.544 | inactive: -1.08 |
| COc1nc(C)ccc1CN1CC1C#N (centres undefined) [ciamexon] | inactive: 1.32 | inactive: -1.5 | inactive: -0.423 |
| COc1cccc2c(C(=O)N3CCN(C)C(C)C3)cn(CC3CCCCC3)c12 (centres undefined) | inactive: 0.895 | inactive: 0.229 | inactive: -2 |
| CCC(O)c1ccc(OCCNC(C)Cc2ccccc2)cc1 (centres undefined) | inactive: -0.342 | inactive: 0.865 | inactive: -0.23 |
| O=c1cc(C(F)(F)F)c2cc(Br)ccc2[nH]1 | inactive: 1.89 | inactive: -1.43 | inactive: -1.5 |
| COC(=O)N1CCN(C(=O)Cc2ccc(Cl)c(Cl)c2)C(CN2CCCC2)C1 (centres undefined) | inactive: -0.952 | inactive: 1.93 | inactive: -1.42 |
| FC(F)(F)c1nnc(N2CCNCC2)cc1-c1ccccc1 | inactive: 2.02 | inactive: 4.23 | inactive: 0.0905 |
| CCNC1=Nc2ccc(Cl)cc2C(C)(c2ccccc2)O1 [(S)-etifoxine] | inactive: -1.01 | inactive: 0.849 | inactive: -0.919 |
| O=[N+]([O-])O[C@@H]1CO[C@H]2[C@@H]1OC[C@@H]2O [isosorbide mononitrate, Hassle] | inactive: 4.05 | inactive: -0.574 | inactive: 1.12 |
| NC(=O)CN1CC(O)CC1=O (centres undefined) [oxiracetam] | inactive: -1.21 | inactive: 0.257 | inactive: -0.203 |
| CC(=O)[C@H]1CCC2C3CC[C@H]4C[C@H](O)[C@@H](C)C[C@]4(C)C3CC[C@@]21C (some centres undefined) | inactive: -0.193 | inactive: 3.99 | inactive: -0.198 |
| CC[C@@]1(O)C(=O)OCc2c1cc1n(c2=O)Cc2cc3ccccc3nc2-1 [camptothecin prodrug, Mersana] | inactive: -1.51 | inactive: -1.91 |  |
| CC[C@@]1(O)C(=O)OCc2c1cc1n(c2=O)Cc2cc3ccccc3nc2-1 [camptothecin prodrug] |  |  | inactive: -2.11 |
| CC(=O)N(O)CCCP(=O)([O-])O | inactive: -0.51 | inactive: 3.28 | inactive: -2.26 |
| CC12CCC(O)CC1=CCC1C2CCC2(C)C(O)CCC12 (centres undefined) | inactive: -1.31 | inactive: 2.15 | inactive: -0.375 |
| CCOC(OCC)P(=O)(O)CCCN | inactive: -0.601 | inactive: -0.272 | inactive: -1.15 |

| SMILES | TEAD-luciferase reporter activity (compound concentration: 200 nM) | TEAD-luciferase reporter activity (compound concentration: 10 uM) | TEAD-luciferase reporter activity (compound concentration: 2 uM) |
| --- | --- | --- | --- |
| O=C1c2ccccc2C(=O)N1CCCN1CC=C(c2c[nH]c3ccccc23)CC1 | inactive: 0.251 | inactive: -0.154 | inactive: -1.37 |
| c1cc([C@H]2CC[C@]3(CC2)OOC2(O3)C3CC4CC(C3)CC2C4)ccc1OCCN1CCOCC1 (some centres undefined) [Artefenomel] | inactive: 1.39 | inactive: -0.0491 |  |
| CN1C2CCC1C(C(=O)O)C(OC(=O)c1ccccc1)C2 (centres undefined) | inactive: -0.29 | inactive: 0.882 | inactive: 0.0318 |
| CC(C)(CO[N+](=O)[O-])C(=O)O | inactive: 3.71 | inactive: 0.809 | inactive: -1.75 |
| FC(F)(F)c1cccc(C2CNCCO2)c1 (centres undefined) [Flumexadol] | inactive: -1.38 | inactive: 0.531 | inactive: -0.733 |
| O=C1c2ccccc2OC=C(Cl)N1CCCCN1CC=C(c2ccccn2)CC1 | inactive: 0.172 | inactive: -1.32 | inactive: -1.03 |
| COc1cc2c(cn1)C1NCCC1CC2 (centres undefined) | inactive: 0.855 | inactive: 3.64 | inactive: -0.0297 |
| CC(C)(NC(=O)c1cc2c(n(CC3CCCCC3)c1=O)CCCCCC2)C(=O)N1CC(NS(C)(=O)=O)C1 | inactive: -0.854 | inactive: -1.1 | inactive: 1.48 |
| CC(=O)C1CCC2C3CC[C@H]4CC(O)CCC4(C)C3[C@H](O)CC12C (some centres undefined) | inactive: 2.36 | inactive: -2.01 | inactive: -0.52 |
| CNCC(C)c1ccccc1 (centres undefined) | inactive: 0.82 | inactive: 0.428 | inactive: 0.0794 |
| CCOC(=O)C1(c2ccccc2)CCN(CCC(O)c2ccccc2)CC1 (centres undefined) | inactive: -0.982 | inactive: -1.61 | inactive: -0.326 |
| Clc1ccc(Cl)c(-c2cc(Cl)c(Cl)cc2Cl)c1 | inactive: 0.46 | inactive: 3.11 | inactive: -0.298 |
| Cc1ccc(NC(=O)NC2N=C(c3ccccc3)c3ccccc3N(C)C2=O)c(C)c1 (centres undefined) | inactive: -1.3 | inactive: -1.24 | inactive: -1.85 |
| NNC(=O)CN1C(=O)CN=C(c2ccccc2)c2cc(Br)ccc21 [Gidazepam] | inactive: 0.519 | inactive: -0.11 | inactive: -0.391 |
| CN(C)C1CCc2[nH]c3c(F)cc(F)cc3c2C1 (centres undefined) [3-(Dimethylamino)-6,8-difluoro-1,2,3,4-tetrahydrocarbazole] | inactive: -0.299 | inactive: -0.132 |  |
| CN(C)C1CCc2[nH]c3c(F)cc(F)cc3c2C1 (centres undefined) [Flucindole] |  |  | inactive: -0.0561 |
| C#C[C@]1(O)CC[C@H]2[C@@H]3CCC4=CC(=O)CCC4=C3C=C[C@@]21CC [gestri] |  |  | inactive: 0.879 |
| C#C[C@]1(O)CC[C@H]2[C@@H]3CCC4=CC(=O)CCC4=C3C=C[C@@]21CC [Gestri] | inactive: -1.74 | inactive: 2.38 |  |
| O=C1CN=C(c2ccccc2F)c2cc(Cl)ccc2N1CC1CC1 | inactive: -0.825 | inactive: 0.56 | inactive: -2.19 |

3 successive entries already listed, for reference:

| SMILES | TEAD-luciferase reporter activity (compound concentration: 200 nM) | TEAD-luciferase reporter activity (compound concentration: 10 uM) | TEAD-luciferase reporter activity (compound concentration: 2 uM) |
| --- | --- | --- | --- |
| NNC(=O)CN1C(=O)CN=C(c2ccccc2)c2cc(Br)ccc21 [Gidazepam] | inactive: 0.519 | inactive: -0.11 | inactive: -0.391 |
| CN(C)C1CCc2[nH]c3c(F)cc(F)cc3c2C1 (centres undefined) [3-(Dimethylamino)-6,8-difluoro-1,2,3,4-tetrahydrocarbazole] | inactive: -0.299 | inactive: -0.132 |  |
| CN(C)C1CCc2[nH]c3c(F)cc(F)cc3c2C1 (centres undefined) [Flucindole] |  |  | inactive: -0.0561 |
